In patent publication US11096881B2 (priority 2016, dated 2021):

Test system: skin of six human volunteers with phototypes III
Conditions: in vivo

Compound: NCCS [Cysteamine]
- Melanin values (change after treatment): significantly reduced
